This is an account of results in article PMC1810427.

Amino acid sequences for entries named in this document (tags omitted). Residues count along the entry.
UniProt O15234, residues 137-283: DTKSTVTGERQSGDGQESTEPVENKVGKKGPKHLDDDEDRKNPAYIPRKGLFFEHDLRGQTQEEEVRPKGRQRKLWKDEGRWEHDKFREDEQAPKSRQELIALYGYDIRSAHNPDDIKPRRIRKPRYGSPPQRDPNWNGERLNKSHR
UniProt P38919: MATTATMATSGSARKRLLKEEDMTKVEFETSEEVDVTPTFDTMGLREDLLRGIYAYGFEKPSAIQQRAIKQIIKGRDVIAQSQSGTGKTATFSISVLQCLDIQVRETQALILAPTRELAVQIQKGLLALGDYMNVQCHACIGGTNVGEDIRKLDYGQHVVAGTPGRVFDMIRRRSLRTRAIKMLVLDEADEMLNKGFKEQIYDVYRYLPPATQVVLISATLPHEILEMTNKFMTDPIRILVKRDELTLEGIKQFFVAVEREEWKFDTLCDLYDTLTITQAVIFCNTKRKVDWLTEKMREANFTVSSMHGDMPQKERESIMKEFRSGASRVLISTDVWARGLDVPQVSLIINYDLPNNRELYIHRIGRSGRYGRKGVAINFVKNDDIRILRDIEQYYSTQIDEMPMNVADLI

No constants are given. Whether binding was seen depends on the method and setting. Some results given as binding are weak or reduced against the parent protein; the word gives no strength.

The target of the assay is SELOR domain of MLN51 (residues 137-283) (UniProt O15234). The experiment in a line: SPR; 5'-biotinylated 35-mer single-stranded RNA on a streptavidin chip; 160 nM protein samples injected without nucleotide; 40 mM Tris-HCl pH 7.8, 50 mM NaCl, 4 mM DTT, 5 mM MgCl2, 0.002% Tween 20, 30 µl/min; Biacore 2000; the protein-protein complex is read from the rise of protein bound to RNA; both purified.

For “eIF4AIII (from UniProt P38919 1-411) (enzyme)”, the binding result is “binds”.
